No constants are given. Whether binding was seen depends on the method and setting. Binding calls can cover weak binding; strength is not graded here.

Chains of the proteins cited; added tags and fusions are not shown. Lines headed by an entry give the natural chain unless they say otherwise; changes in a name come on top.
UniProt A0A3Q7I3M4: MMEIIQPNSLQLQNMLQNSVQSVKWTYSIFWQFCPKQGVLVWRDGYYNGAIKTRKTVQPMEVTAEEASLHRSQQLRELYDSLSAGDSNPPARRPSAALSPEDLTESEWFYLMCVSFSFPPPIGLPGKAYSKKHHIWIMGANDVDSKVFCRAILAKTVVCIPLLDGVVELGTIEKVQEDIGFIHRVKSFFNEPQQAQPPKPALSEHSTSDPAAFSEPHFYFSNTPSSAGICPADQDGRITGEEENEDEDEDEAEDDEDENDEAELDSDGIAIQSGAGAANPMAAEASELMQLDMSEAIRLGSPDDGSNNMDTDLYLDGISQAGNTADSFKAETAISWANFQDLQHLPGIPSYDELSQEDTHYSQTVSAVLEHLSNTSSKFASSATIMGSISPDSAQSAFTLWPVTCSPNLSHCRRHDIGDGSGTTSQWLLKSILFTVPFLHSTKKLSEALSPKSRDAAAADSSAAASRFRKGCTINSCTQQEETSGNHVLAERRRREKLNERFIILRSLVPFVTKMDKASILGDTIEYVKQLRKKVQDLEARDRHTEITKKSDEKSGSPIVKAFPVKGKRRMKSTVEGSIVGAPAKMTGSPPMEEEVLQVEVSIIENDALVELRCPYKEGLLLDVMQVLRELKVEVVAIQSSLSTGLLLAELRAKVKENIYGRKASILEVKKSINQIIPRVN

The target in assay [1] is BBX21like (tomato, Solyc04g081020) (tomato (Solanum lycopersicum)). The experiment in a line: two-hybrid.
For assay [2], the target named is BBX21 (tomato, Solyc12g089240) (tomato (Solanum lycopersicum)). The assay can be described thus: two-hybrid.

Consider “AN1 (tomato bHLH, Solyc09g065100) (from UniProt A0A3Q7I3M4)”, for which the binding result in assay [1] and in assay [2] was “binds” throughout.

For the molecule “BBX21like (tomato, Solyc04g081020) (from UniProt A0A3Q7GB83)”, in assay [2], the binding entry was “binds”.

In the case of “COP1 homolog (tomato, Solyc12g005950) (from UniProt A0A3Q7J232)”, the binding result in assay [1] and in assay [2] was “binds” in each case.

B1: DE-ETIOLATED 1 (DET1; tomato, Solyc01g056340) (protein, UniProt Q9ZNU6 1-523)
chain: MFKTNNVTARLFERQICTPAPGTSIHRARRFYENVVPSYTIYDVECPDHSFRKFTDDGLYFVSFSRNHQDLVVYRPTWLTFSCKEEDCDTHDLPLKARKFESFFTQLYSVTLASSGELICKDFFLYMESNQFGLFATSTAQIHDAPPTGGAIQGVPSVEKITFHLLRLVDGAILDERVFHNDYVNLAHSIGAFLYDDLLAIVSLRYQRIHILQIRDSGDLVDVRAIGEFCREDDELFLNSNSQVLVNHVGNGFHHSLPQSETSFLSGIKQRLLSYIFRGIWNEADQTMRVQCLKKKFYFHFQDYIDLIIWKVQFLDRHHLLIKFGSVDGGVSRNADIHPSFFAVYNMETTEIVAFYQNSADELYFLFELFSDHFHVSSKSSLHMNFMSSHSNNIHALEQLRCTKNKATNFSQFVKKMMASLPCSCQSQSPSPYFDQSLFRFDEKLISAIDRHRQSTDHPIKFISRRQPNILKFKMKPGPEAGSTDGRTKKICSFLFHPILPLALSVQQTLFLQASVVNIHFRR
In the case of B1, the binding result in assay [1] and in assay [2] was “binds” in each case.

B2: ELONGATED HYPOCOTYL 5 (HY5; tomato, Solyc08g061130) (protein, UniProt Q9SM50 1-158)
chain: MQEQATSSIAASSLPSSSERSSSSALHHELKEGMESDDEIRRVPEMGGEATGTTSASGRDGVSAAGQAQPSAGTQRKRGRSPADKENKRLKRLLRNRVSAQQARERKKAYLIDLEARVKELETKNAELEERLSTLQNENQMLRHILKNTTAGAQEGRK
For B2, the binding entry in assay [1] and in assay [2] was “binds” in each case.

The values are drawn from doi:10.64898/2025.12.03.692022.
